Data taken from the supplement of paper PMC10849652.
The other results are listed elsewhere or left out.

Amino acid sequences for entries named in this document (tags omitted). A change or cut given only in a name is not applied to a line headed by its entry.
UniProt Q96QF0: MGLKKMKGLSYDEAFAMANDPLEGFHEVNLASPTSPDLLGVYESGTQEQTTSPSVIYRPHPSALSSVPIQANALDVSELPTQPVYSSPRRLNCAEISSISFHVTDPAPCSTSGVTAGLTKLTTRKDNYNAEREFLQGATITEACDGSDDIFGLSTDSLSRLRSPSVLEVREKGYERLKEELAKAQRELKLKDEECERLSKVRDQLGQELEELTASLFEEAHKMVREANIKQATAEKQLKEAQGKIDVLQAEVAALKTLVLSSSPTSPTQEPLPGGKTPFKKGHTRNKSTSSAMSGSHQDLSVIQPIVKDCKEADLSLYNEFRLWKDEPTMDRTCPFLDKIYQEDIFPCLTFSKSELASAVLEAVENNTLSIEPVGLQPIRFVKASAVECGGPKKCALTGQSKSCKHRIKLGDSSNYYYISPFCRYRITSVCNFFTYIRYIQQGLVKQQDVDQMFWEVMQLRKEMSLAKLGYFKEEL
UniProt Q9NR77: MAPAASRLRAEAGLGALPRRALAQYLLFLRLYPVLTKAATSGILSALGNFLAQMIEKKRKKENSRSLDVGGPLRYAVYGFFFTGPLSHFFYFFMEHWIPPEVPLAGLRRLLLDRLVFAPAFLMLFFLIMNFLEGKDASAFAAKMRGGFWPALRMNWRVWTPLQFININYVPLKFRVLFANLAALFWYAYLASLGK
UniProt P61019: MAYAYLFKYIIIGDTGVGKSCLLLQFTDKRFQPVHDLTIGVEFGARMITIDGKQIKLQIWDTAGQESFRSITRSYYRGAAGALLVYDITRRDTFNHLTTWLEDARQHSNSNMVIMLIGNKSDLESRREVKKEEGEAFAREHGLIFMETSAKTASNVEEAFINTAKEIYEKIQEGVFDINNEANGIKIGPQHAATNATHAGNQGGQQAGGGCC
UniProt O60518: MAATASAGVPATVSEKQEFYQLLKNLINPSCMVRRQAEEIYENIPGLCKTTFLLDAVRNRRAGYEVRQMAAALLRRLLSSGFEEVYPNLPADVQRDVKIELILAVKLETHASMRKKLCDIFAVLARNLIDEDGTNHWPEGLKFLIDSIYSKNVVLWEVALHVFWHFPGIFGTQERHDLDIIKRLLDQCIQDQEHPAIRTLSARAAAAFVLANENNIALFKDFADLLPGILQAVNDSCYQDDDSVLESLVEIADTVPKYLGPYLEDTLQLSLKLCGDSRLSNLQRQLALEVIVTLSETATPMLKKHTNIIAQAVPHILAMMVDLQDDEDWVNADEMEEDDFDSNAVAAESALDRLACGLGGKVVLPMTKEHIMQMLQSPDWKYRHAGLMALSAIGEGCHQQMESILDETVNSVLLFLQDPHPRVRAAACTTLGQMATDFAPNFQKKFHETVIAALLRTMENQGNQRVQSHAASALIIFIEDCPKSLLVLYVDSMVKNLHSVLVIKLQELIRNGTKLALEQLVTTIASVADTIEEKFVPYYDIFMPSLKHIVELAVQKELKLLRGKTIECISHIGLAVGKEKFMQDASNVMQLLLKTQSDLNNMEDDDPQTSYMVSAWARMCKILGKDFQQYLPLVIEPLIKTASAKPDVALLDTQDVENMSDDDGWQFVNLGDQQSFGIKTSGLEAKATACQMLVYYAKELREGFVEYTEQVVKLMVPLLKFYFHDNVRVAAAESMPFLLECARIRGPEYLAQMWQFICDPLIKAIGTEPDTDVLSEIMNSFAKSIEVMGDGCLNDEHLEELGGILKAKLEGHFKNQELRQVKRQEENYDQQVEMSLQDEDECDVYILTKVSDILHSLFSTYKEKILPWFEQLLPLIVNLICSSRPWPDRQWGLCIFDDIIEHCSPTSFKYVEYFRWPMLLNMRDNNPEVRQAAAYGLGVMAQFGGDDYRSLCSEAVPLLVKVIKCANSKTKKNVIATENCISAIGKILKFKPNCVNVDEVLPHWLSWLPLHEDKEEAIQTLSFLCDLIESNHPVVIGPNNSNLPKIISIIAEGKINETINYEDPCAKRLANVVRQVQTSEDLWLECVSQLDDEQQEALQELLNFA
UniProt Q9UKM9: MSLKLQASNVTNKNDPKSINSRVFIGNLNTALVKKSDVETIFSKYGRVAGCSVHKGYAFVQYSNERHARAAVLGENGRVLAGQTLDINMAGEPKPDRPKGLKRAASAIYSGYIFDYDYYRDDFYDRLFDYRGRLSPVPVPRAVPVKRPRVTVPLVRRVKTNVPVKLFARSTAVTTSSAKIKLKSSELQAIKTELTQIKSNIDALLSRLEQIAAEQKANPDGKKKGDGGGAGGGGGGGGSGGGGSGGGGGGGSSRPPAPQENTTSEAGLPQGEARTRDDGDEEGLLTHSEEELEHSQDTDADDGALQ
UniProt Q9H6Z4: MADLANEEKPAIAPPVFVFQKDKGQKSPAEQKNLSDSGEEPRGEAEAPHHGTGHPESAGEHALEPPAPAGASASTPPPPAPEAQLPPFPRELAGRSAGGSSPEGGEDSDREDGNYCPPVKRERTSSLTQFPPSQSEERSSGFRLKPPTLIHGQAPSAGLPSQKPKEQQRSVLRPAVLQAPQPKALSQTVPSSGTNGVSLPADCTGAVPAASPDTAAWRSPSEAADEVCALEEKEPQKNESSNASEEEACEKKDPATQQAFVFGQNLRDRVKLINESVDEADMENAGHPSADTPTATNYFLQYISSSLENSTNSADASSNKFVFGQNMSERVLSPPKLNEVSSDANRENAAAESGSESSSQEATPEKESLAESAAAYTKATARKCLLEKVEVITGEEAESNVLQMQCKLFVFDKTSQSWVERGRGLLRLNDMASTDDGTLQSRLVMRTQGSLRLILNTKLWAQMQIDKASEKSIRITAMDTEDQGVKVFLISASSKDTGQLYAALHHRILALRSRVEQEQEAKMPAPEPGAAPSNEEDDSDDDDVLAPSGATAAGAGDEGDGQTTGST
UniProt P10114: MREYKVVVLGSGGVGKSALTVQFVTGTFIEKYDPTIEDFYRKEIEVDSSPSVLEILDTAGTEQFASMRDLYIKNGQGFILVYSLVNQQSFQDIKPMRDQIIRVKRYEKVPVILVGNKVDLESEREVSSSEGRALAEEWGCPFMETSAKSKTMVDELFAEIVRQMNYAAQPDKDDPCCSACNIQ
UniProt P62491: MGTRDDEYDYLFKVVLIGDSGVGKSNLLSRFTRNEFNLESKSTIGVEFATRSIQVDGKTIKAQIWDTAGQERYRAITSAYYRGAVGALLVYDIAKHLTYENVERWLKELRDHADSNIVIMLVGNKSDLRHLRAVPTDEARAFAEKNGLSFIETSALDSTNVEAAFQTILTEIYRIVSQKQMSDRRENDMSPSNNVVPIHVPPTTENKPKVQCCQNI
UniProt Q96I23: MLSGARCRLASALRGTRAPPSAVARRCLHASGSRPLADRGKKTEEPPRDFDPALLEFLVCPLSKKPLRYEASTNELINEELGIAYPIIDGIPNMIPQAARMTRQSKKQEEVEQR
UniProt P61224: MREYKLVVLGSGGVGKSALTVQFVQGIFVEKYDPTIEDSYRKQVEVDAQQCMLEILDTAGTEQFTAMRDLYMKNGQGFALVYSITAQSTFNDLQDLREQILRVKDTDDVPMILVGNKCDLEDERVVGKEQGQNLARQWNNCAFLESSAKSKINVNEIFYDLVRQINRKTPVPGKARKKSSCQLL
UniProt Q9NP72: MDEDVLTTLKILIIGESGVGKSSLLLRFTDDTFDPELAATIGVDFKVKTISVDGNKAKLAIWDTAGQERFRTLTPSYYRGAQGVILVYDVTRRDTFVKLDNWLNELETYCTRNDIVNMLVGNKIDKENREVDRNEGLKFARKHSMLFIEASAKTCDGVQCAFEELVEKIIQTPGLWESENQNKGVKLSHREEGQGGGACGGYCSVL
UniProt P62820, whole entry, looked up: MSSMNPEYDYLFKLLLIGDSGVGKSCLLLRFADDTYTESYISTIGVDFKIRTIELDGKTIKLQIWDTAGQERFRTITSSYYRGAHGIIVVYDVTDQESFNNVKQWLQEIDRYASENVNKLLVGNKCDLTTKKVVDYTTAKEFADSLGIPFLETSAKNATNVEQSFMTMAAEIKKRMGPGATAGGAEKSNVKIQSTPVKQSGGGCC
UniProt Q8TBN0: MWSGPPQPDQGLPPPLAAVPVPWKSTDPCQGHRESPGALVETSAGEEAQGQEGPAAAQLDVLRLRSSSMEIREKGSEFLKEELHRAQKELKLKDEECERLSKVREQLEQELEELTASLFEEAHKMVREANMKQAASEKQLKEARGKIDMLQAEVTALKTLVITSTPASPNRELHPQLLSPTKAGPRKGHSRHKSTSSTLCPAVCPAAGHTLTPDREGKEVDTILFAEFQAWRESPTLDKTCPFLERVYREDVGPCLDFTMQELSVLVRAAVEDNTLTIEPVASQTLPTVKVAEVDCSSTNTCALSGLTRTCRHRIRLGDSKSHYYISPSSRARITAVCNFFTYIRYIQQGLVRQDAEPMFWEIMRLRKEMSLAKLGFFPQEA
UniProt P61006: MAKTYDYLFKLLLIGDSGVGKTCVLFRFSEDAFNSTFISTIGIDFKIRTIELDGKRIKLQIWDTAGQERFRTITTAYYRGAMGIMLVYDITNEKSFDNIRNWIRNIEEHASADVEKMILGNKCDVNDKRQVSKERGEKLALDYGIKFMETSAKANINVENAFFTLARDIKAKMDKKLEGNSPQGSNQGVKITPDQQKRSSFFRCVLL
UniProt Q6VN20, whole entry, looked up: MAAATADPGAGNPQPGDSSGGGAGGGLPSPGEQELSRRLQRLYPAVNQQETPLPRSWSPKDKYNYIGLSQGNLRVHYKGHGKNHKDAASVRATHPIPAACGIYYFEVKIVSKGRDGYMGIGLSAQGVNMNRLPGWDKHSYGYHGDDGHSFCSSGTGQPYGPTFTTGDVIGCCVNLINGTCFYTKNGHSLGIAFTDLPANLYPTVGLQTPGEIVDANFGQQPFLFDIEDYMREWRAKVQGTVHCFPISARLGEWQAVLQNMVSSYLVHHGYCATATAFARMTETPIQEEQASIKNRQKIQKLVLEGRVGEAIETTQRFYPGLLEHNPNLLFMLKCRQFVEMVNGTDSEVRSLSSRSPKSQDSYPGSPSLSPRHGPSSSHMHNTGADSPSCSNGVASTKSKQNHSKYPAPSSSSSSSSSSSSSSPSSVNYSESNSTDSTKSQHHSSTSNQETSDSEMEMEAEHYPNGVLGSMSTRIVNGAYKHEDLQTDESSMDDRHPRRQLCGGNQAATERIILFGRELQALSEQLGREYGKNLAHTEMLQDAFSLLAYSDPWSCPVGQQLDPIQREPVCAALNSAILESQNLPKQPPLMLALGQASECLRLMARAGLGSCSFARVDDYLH
UniProt P06737: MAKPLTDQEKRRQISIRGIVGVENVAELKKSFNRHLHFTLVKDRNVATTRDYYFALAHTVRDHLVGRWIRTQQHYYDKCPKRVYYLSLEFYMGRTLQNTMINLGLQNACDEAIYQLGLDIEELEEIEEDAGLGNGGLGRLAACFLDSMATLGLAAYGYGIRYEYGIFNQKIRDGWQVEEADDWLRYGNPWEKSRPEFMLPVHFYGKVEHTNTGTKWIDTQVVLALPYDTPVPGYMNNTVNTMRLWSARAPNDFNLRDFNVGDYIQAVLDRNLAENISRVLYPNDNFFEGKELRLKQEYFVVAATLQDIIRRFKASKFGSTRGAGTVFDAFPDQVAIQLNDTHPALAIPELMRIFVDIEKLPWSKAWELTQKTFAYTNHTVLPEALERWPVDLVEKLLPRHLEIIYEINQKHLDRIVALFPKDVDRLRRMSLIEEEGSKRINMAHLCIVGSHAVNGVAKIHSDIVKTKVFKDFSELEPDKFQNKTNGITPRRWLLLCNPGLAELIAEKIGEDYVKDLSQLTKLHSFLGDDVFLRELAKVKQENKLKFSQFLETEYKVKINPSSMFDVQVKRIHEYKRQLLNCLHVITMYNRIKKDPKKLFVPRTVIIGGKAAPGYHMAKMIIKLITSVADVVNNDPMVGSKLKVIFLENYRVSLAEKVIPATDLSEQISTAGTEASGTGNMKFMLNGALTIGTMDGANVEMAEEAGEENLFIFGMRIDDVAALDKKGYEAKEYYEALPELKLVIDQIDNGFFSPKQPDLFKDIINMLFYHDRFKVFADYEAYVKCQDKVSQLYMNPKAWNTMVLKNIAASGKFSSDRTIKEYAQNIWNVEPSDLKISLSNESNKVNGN
UniProt Q9NS91, whole entry, looked up: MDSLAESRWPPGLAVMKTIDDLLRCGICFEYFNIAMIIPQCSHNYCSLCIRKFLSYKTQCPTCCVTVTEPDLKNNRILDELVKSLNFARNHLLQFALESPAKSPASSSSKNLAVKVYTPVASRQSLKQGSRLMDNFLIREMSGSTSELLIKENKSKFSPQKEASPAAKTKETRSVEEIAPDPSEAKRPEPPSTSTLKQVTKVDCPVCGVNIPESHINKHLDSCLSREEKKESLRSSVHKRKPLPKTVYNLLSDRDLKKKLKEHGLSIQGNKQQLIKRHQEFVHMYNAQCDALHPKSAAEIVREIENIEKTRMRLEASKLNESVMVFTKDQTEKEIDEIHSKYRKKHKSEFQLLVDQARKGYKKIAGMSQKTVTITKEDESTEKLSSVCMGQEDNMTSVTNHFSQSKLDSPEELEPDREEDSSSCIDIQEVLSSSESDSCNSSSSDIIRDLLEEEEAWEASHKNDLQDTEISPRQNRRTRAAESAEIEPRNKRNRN

Key:
Assay in all cases: log2 fold change, soluble protein after heating vs DMSO (PISA); higher = thermal stabilisation; K562 lysate, 10 uM; active = over 0.2 and 3.5 SD of the protein, either way, in both replicates (recomputed)
vemurafenib = compound: CCCS(=O)(=O)Nc1ccc(F)c(C(=O)c2c[nH]c3ncc(-c4ccc(Cl)cc4)cc23)c1F [vemurafenib]
Procedure, shortened: (§1)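 Dounce homogenisation of K562 pellets in PBS pH 7.4 with 1 mM MgCl2 produced a crude extract, used at 1 mg/mL protein. Exposure to 10 μM compound lasted 30 min, and aliquots were then heated for 3 min across 48°C-58°C, pooled and brought to 0.5% NP-40 at 4°C. The supernatant after 21,000xg for 90 min was quantified by TMTpro 16plex LC-MS/MS with channel sums equalised. Duplicate values are given as log-two fold change in thermal stability relative to solvent controls.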

[1] = compound: CCCS(=O)(=O)Nc1ccc(F)c(C(=O)c2c[nH]c3ncc(Cl)cc23)c1F
Procedure, shortened: as §1

barasertib = compound: CCN(CCCOc1ccc2c(Nc3cc(CC(=O)Nc4cccc(F)c4)[nH]n3)ncnc2c1)CCOP(=O)(O)O [barasertib]
Procedure, shortened: as §1

[2] = compound: CC[C@@H]1C(=O)N(C)c2cnc(Nc3ccc(C(=O)NC4CCN(C)CC4)cc3OC)nc2N1C1CCCC1
Procedure, shortened: as §1

volasertib = compound: CC[C@@H]1C(=O)N(C)c2cnc(Nc3ccc(C(=O)N[C@H]4CC[C@H](N5CCN(CC6CC6)CC5)CC4)cc3OC)nc2N1C(C)C [volasertib]
Procedure, shortened: as §1

[3] = compound: CCn1c(C(=O)N(C2CC2)C2CC2)cc2c3c(ncn3C)c(Nc3cc(C)n(C)n3)nc21
Procedure, shortened: as §1

[4] = compound: CCn1cc(-c2ccnc3[nH]c(-c4cccc(CN(C)C)c4)cc23)c(-c2ccc(NC(=O)N(C)C)cc2)n1
Procedure, shortened: as §1

[5] = compound: CN1CCC(CNc2ccc3ncc(-c4cccc(OC(F)(F)F)c4)n3n2)CC1
Procedure, shortened: as §1

saracatinib = compound: CN1CCN(CCOc2cc(OC3CCOCC3)c3c(Nc4c(Cl)ccc5c4OCO5)ncnc3c2)CC1 [saracatinib]
Procedure, shortened: as §1

sotrastaurin = compound: CN1CCN(c2nc(C3=C(c4c[nH]c5ccccc45)C(=O)NC3=O)c3ccccc3n2)CC1 [sotrastaurin]
Procedure, shortened: as §1

Measured: log2 fold change

RAB3IP (UniProt Q96QF0)
inactive: vemurafenib -0.026 | [1] 0.096 | barasertib 0.002 | [2] 0.013 | volasertib -0.013 | [3] 0.001 | [4] 0.019 | [5] 0.033 | saracatinib 0.029 | sotrastaurin -0.015

RAD51D (UniProt O75771)
inactive: vemurafenib 0.012 | [1] 0.088 | barasertib -0.069 | [2] -0.149 | volasertib -0.106 | [3] -0.033 | [4] -0.039 | [5] -0.049 | saracatinib 0.031

PXMP2 (UniProt Q9NR77)
inactive: vemurafenib 0.006 | [1] 0.016 | barasertib 0.1 | [2] 0.071 | volasertib 0.038 | [3] 0.045 | [4] -0.136 | [5] 0.017 | saracatinib -0.027 | sotrastaurin 0.027

RAB2A (UniProt P61019)
inactive: vemurafenib -0.127 | [1] 0.002 | barasertib 0.022 | [2] -0.232 | volasertib 0.02 | [3] 0.045 | [4] 0.051 | [5] 0.04 | saracatinib 0.021 | sotrastaurin 0.031

RABL6 (UniProt Q3YEC7)
inactive: vemurafenib -0.062 | [1] 0.006 | barasertib 0.023 | [2] 0.064 | volasertib 0.013 | [3] 0 | [4] -0.041 | [5] 0.027 | saracatinib 0.002 | sotrastaurin 0.005

RANBP6 (UniProt O60518)
inactive: vemurafenib 0.008 | [1] 0.025 | barasertib 0.013 | [2] -0.016 | volasertib 0.013 | [3] 0.068 | [4] -0.045 | [5] 0.06 | saracatinib -0.038 | sotrastaurin 0.002

PYCARD (UniProt Q9ULZ3)
inactive: vemurafenib 0.038 | [1] 0.004 | barasertib 0.067 | [2] 0.036 | volasertib -0.016 | [3] -0.015 | [4] -0.092 | [5] 0.071 | saracatinib -0.084 | sotrastaurin -0.018

RALBP1 (UniProt Q15311)
inactive: vemurafenib -0.027 | [1] 0.01 | barasertib 0.108 | [2] 0.016 | volasertib 0.005 | [3] -0.002 | [4] -0.015 | [5] -0.004 | saracatinib 0.028 | sotrastaurin 0.038

RAD51C (UniProt O43502)
inactive: vemurafenib -0.067 | [1] -0.01 | barasertib -0.011 | [2] -0.017 | volasertib 0.046 | [3] -0.038 | [4] -0.027 | [5] 0.027 | saracatinib 0.01 | sotrastaurin 0.027

RALY (UniProt Q9UKM9)
inactive: vemurafenib -0.008 | [1] 0.019 | barasertib -0.035 | [2] -0.123 | volasertib -0.027 | [3] -0.038 | [4] 0.009 | [5] -0.035 | saracatinib -0.017 | sotrastaurin 0.011

RANBP3 (UniProt Q9H6Z4)
inactive: vemurafenib 0.02 | [1] 0 | barasertib -0.01 | [2] 0.021 | volasertib 0.012 | [3] -0.03 | [4] -0.01 | [5] 0.076 | saracatinib -0.024 | sotrastaurin 0.013

RAP2A (UniProt P10114)
inactive: vemurafenib -0.027 | [1] -0.008 | barasertib 0.059 | [2] -0.053 | volasertib -0.012 | [3] -0.025 | [4] 0.026 | [5] 0.003 | saracatinib 0.026 | sotrastaurin 0.008

RAB11A (UniProt P62491)
inactive: vemurafenib -0.007 | [1] 0.105 | barasertib 0.069 | [2] 0.046 | volasertib -0.057 | [3] -0.038 | [4] -0.018 | [5] -0.113 | saracatinib -0.011 | sotrastaurin 0.013

Looked up one by one from the list above (2):
RAD51C (UniProt O43502)
inactive: vemurafenib -0.067 | [1] -0.01 | barasertib -0.011 | [2] -0.017 | volasertib 0.046 | [3] -0.038 | [4] -0.027 | [5] 0.027 | saracatinib 0.01 | sotrastaurin 0.027

RAB11A (UniProt P62491)
inactive: vemurafenib -0.007 | [1] 0.105 | barasertib 0.069 | [2] 0.046 | volasertib -0.057 | [3] -0.038 | [4] -0.018 | [5] -0.113 | saracatinib -0.011 | sotrastaurin 0.013

The list goes on:

PYURF (UniProt Q96I23)
inactive: vemurafenib -0.048 | [1] -0.003 | barasertib -0.049 | [2] 0.103 | volasertib 0.059 | [3] 0.042 | [4] -0.03 | [5] -0.002 | saracatinib -0.013 | sotrastaurin -0.034

RAP1B (UniProt P61224)
active: [4] 0.372
inactive: vemurafenib 0.006 | [1] 0.008 | barasertib 0.054 | [2] 0.061 | volasertib 0.018 | [3] -0.037 | [5] -0.035 | saracatinib 0.002 | sotrastaurin 0.005

RAB5C isoform 2 (UniProt P51148)
inactive: vemurafenib 0.025 | [1] -0.018 | barasertib -0.01 | [2] 0.044 | volasertib 0.006 | [3] -0.016 | [4] -0.082 | [5] 0.092 | saracatinib 0.035 | sotrastaurin -0.008

RAB8B (UniProt Q92930)
inactive: vemurafenib -0.137 | [1] 0 | barasertib -0.036 | [2] 0.028 | volasertib -0.036 | [3] 0.007 | [4] 0.252 | [5] -0.142 | saracatinib 0.08 | sotrastaurin -0.024

RAB18 isoform 2 (UniProt Q9NP72)
inactive: vemurafenib -0.015 | [1] 0.028 | barasertib -0.04 | [2] -0.023 | volasertib 0.018 | [3] -0.038 | [4] 0.026 | [5] 0.073 | saracatinib 0.015 | sotrastaurin -0.003

RAB1A (UniProt P62820)
inactive: vemurafenib -0.025 | [1] -0.016 | barasertib 0.019 | [2] 0.001 | volasertib -0.002 | [3] 0.01 | [4] 0.062 | [5] -0.033 | saracatinib -0.018 | sotrastaurin 0.023

RAB3IL1 (UniProt Q8TBN0)
inactive: vemurafenib -0.018 | [1] 0.017 | barasertib 0.054 | [2] 0.022 | volasertib -0.008 | [3] 0.054 | [4] 0.025 | [5] -0.016 | saracatinib 0.033 | sotrastaurin -0.024

RABGGTB (UniProt P53611)
inactive: vemurafenib -0.022 | [1] 0.058 | barasertib 0.096 | [2] -0.034 | volasertib 0.008 | [3] -0.031 | [4] 0.151 | [5] -0.033 | saracatinib -0.017 | sotrastaurin 0.037

RAB2B (UniProt Q8WUD1)
inactive: vemurafenib -0.006 | [1] 0.014 | barasertib 0.025 | [2] 0.046 | volasertib 0.008 | [3] -0.023 | [4] 0.002 | [5] 0.032 | saracatinib 0.003 | sotrastaurin -0.049

RAB8A (UniProt P61006)
inactive: vemurafenib -0.026 | [1] -0.044 | barasertib 0.042 | [2] -0.026 | volasertib 0.021 | [3] 0.04 | [4] -0.045 | [5] 0.056 | saracatinib -0.03 | sotrastaurin 0.02

RANBP10 (UniProt Q6VN20)
inactive: vemurafenib 0.078 | [1] 0.052 | barasertib 0.056 | [2] 0.075 | volasertib 0.044 | [3] -0.065 | [4] -0.003 | [5] -0.032 | saracatinib -0.021 | sotrastaurin -0.009

RAB3IL1 (UniProt E9PK89)
inactive: vemurafenib -0.154 | [1] 0.031 | barasertib -0.001 | [2] -0.079 | volasertib 0.031 | [3] -0.054 | [4] 0.026 | [5] -0.047 | saracatinib -0.043 | sotrastaurin -0.013

PYGL (UniProt P06737)
inactive: vemurafenib -0.013 | [1] 0 | barasertib -0.002 | [2] -0.103 | volasertib -0.003 | [3] 0.018 | [4] -0.058 | [5] 0.034 | saracatinib -0.006 | sotrastaurin -0.007

RAB32 (UniProt Q13637)
inactive: vemurafenib -0.054 | [1] 0.055 | barasertib 0.037 | [2] 0.04 | volasertib 0.083 | [3] -0.035 | [4] -0.202 | [5] 0.115 | saracatinib 0.006 | sotrastaurin 0.012

RAD18 (UniProt Q9NS91)
inactive: vemurafenib 0.003 | [1] -0.028 | barasertib 0.032 | [2] 0.001 | volasertib -0.014 | [3] 0.018 | [4] 0.012 | [5] -0.024 | saracatinib 0.011 | sotrastaurin 0.039

PYCR2 (UniProt Q96C36)
inactive: vemurafenib 0.004 | [1] -0.005 | barasertib 0.006 | [2] 0.036 | volasertib 0.016 | [3] -0.001 | [4] 0.099 | [5] 0.012 | saracatinib -0.012 | sotrastaurin -0.014

RACGAP1 (UniProt Q9H0H5)
inactive: vemurafenib -0.053 | [1] -0.002 | barasertib 0.005 | [2] 0.034 | volasertib -0.165 | [3] -0.004 | [4] -0.007 | [5] -0.047 | saracatinib 0.046 | sotrastaurin -0.005
